Experimental data published in the supplement of paper PMC12819154, “High-throughput peptide-centric local stability assay extends protein–ligand identification to membrane proteins, tissues and bacteria” (Nature Structural & Molecular Biology, 2025).
Some of the results follow. Most entries show no effect beyond the scatter of the controls.

Protein sequences, listed by entry. Tags and fused reporters are not part of them. Lines headed by an entry give the natural chain unless they say otherwise; changes in a name come on top.
UniProt Q9H8H2: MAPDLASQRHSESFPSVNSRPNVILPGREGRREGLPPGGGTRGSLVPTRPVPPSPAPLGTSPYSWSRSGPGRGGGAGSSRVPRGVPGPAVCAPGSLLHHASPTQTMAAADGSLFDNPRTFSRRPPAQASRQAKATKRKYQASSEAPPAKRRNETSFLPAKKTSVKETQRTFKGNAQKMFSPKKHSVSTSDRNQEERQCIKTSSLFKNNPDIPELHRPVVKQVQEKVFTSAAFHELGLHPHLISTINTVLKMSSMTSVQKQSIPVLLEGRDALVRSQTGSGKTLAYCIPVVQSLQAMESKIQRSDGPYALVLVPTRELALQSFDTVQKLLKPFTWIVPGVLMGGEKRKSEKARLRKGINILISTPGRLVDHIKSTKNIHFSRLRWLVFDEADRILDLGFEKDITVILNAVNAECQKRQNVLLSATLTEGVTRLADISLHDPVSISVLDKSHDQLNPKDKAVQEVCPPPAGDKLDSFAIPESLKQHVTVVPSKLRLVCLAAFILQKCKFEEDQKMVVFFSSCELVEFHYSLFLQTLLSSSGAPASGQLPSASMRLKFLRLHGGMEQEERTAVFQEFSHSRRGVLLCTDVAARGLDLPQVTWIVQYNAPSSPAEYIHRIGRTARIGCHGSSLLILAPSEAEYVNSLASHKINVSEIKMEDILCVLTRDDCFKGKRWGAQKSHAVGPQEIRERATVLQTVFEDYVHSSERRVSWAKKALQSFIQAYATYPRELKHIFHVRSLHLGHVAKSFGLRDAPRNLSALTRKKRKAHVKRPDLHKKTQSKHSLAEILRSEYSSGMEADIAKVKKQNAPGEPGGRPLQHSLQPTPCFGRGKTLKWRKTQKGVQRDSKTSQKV
UniProt Q9H9H4: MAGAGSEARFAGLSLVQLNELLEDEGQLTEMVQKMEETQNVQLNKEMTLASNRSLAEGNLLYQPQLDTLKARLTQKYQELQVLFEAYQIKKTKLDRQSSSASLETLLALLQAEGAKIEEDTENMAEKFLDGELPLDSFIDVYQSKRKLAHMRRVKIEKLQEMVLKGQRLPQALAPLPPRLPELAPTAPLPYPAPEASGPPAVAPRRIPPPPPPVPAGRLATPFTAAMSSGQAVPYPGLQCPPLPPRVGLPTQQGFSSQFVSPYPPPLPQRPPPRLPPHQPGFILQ
UniProt Q9HCU5: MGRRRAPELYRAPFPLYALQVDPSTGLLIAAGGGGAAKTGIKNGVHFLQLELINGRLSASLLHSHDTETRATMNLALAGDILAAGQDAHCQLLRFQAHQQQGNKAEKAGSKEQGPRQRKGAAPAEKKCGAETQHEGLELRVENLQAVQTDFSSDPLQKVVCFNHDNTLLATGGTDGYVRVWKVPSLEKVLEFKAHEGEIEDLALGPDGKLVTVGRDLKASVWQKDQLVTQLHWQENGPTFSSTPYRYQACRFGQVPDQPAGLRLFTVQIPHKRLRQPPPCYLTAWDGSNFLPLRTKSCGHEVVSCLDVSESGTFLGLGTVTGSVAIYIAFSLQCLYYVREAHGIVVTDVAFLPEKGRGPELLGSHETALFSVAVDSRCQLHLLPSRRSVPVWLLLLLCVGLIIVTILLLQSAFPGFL
UniProt Q9HD64: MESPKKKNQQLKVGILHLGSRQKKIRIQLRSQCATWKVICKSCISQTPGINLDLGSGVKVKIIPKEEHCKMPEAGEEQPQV
UniProt Q9HB20: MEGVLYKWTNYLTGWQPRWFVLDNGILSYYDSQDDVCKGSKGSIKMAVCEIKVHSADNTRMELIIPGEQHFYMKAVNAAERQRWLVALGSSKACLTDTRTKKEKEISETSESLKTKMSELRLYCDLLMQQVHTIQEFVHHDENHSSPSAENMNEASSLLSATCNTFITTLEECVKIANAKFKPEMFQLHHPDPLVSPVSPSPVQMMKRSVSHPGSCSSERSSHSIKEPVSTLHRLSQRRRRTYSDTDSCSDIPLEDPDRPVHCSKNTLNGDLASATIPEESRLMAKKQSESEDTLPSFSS
UniProt Q9HA47: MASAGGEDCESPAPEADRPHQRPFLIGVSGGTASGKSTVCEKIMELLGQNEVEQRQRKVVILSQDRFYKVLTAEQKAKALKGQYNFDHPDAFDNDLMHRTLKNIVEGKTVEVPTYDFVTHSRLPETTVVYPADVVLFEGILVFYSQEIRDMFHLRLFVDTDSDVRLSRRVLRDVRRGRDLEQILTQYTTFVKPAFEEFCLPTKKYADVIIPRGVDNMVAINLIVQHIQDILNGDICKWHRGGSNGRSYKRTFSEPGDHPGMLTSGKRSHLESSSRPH
UniProt Q9HB96: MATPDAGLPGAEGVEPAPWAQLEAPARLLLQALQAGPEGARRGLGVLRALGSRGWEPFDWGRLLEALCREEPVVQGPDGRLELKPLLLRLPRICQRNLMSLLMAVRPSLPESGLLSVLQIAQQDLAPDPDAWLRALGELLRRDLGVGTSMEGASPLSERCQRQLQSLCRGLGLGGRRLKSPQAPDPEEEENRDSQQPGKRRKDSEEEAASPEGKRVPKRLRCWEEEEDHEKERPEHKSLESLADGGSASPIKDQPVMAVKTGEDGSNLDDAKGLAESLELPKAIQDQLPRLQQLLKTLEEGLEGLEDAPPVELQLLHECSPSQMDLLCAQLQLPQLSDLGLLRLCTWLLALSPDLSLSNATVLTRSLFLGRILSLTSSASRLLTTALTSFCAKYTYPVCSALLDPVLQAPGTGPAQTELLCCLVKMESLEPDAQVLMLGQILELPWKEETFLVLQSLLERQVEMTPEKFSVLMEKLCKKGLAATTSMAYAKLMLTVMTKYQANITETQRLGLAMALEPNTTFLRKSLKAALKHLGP
UniProt Q9H7Z6: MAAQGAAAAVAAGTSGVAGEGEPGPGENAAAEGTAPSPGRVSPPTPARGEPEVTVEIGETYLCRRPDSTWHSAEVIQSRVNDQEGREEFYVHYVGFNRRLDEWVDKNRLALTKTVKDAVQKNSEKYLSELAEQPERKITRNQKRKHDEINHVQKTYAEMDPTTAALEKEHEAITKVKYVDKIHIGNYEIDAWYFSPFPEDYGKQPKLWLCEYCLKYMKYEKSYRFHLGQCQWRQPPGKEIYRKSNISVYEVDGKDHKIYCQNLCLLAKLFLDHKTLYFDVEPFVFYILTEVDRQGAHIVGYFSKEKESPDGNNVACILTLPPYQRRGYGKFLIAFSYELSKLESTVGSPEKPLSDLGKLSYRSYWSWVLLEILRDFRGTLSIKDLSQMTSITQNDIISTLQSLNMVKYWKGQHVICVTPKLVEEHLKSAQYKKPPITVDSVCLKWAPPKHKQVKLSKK
UniProt Q9H6X5: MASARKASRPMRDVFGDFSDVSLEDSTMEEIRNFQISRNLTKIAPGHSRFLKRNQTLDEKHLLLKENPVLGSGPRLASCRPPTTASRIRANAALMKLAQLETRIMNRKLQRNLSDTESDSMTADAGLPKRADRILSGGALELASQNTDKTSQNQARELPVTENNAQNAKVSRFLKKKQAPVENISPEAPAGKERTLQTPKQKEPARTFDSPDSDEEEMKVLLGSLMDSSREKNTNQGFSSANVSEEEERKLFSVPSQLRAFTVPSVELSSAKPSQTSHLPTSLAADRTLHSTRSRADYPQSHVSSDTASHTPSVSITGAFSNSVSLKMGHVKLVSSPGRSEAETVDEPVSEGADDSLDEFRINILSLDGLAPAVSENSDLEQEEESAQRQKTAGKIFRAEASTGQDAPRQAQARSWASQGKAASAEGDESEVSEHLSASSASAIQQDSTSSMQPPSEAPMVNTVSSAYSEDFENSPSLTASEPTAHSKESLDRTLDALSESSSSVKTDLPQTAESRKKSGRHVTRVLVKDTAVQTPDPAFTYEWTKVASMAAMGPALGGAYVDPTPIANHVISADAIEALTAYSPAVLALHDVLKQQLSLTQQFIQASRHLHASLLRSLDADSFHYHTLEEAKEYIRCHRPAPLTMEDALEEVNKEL
UniProt Q9NQC7: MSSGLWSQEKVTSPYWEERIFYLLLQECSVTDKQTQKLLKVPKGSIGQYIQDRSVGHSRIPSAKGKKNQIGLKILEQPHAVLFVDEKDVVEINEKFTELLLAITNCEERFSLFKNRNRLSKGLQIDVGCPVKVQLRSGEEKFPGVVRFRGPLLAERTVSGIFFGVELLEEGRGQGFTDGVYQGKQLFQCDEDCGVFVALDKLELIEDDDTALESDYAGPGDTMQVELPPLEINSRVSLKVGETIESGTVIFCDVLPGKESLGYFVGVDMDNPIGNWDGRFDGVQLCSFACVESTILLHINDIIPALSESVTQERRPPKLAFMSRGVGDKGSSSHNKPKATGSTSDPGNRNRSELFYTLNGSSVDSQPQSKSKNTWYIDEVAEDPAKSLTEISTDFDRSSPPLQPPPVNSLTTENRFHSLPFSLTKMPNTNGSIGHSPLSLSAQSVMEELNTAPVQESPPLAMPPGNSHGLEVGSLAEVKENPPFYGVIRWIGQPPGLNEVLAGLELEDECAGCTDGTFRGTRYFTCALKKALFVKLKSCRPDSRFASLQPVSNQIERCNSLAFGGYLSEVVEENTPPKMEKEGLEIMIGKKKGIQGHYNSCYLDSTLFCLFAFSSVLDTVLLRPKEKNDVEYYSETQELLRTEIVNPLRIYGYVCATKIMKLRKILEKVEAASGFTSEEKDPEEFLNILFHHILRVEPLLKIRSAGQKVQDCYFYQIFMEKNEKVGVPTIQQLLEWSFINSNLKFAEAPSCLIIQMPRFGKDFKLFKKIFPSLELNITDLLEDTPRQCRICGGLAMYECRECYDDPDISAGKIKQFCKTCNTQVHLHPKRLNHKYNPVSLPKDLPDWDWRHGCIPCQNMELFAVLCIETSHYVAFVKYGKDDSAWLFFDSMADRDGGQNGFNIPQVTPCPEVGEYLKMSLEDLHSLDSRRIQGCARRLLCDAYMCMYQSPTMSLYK
UniProt Q9H8M2, whole entry: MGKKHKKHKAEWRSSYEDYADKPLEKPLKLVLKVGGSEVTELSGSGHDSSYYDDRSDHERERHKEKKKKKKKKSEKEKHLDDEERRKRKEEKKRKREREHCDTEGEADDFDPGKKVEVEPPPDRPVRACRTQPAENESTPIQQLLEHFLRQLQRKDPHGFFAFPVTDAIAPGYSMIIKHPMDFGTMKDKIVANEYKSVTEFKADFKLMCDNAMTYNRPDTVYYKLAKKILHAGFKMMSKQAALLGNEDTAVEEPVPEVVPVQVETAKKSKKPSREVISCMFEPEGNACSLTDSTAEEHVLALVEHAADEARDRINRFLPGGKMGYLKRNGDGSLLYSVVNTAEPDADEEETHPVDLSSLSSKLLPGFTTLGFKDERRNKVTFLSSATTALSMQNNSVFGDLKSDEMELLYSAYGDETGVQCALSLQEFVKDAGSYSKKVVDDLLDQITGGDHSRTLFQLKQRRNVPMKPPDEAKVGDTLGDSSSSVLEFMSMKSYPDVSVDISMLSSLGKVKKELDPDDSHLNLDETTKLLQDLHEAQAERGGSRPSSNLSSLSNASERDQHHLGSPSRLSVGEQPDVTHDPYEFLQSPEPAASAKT

Compound: CN[C@@H]1C[C@H]2O[C@@](C)([C@@H]1OC)n1c3ccccc3c3c4c(c5c6ccccc6n2c5c31)C(=O)NC4 [staurosporine]
Test: log2 fold change of tryptic peptide abundance, ligand vs vehicle (limited proteolysis) (log2 ratio); higher = more trypsin-susceptible (destabilized)
Details: ligand concentration: 20 uM; sample: K562 cleared lysate; digestion: 4 min, 22 C (HT-PELSA RT4min, Orbitrap Astral)

Target | log2 fold change
DDX31 (peptide sequence: NETSFLPAKK, peptide start residue: 152) (UniProt Q9H8H2) | 0.761
VPS37B (peptide sequence: YQELQVLFEAYQIKK, peptide start residue: 77) (UniProt Q9H9H4) | 0.398
PREB (peptide sequence: FGQVPDQPAGLR, peptide start residue: 252) (UniProt Q9HCU5) | -0.106
XAGE1A (peptide sequence: EEHCKMPEAGEEQPQV, peptide start residue: 66) (UniProt Q9HD64) | 0.126
PLEKHA3 (peptide sequence: SVSHPGSCSSER, peptide start residue: 209) (UniProt Q9HB20) | -0.0836
UCK1 (peptide sequence: SHLESSSRPH, peptide start residue: 268) (UniProt Q9HA47) | 0.198
FANCE (peptide sequence: LLEALCR, peptide start residue: 63) (UniProt Q9HB96) | 0.317
UniProt Q9H7Z6 (peptide sequence: LVEEHLK, peptide start residue: 421) | 0.289
C19orf44 (peptide sequence: VLLGSLMDSSR, peptide start residue: 220) (UniProt Q9H6X5) | 0.142
CYLD (peptide sequence: FHSLPFSLTK, peptide start residue: 416) (UniProt Q9NQC7) | -0.215
BRD9 (peptide sequence: HLDDEERR, peptide start residue: 79) (UniProt Q9H8M2) | 0.659
